According to PubChem BioAssay AID540276 (National Center for Advancing Translational Sciences (NCATS), 2011):
Values joined by “and” are separate entries in the source; they are usually repeats but may differ in a detail not shown here. Identical values can stand only once. Among all 300,000 compounds or so, about 5,400 (1.8%) were called active. The inconclusive results got no clear call from the source; some entries with a clear call stand among them for comparison. Calls come from the whole dose curve; tested in HEK293 cells. A potency beside an inconclusive call is a rough fit, not a confirmed value.

experiment: qHTS for inhibitors of binding or entry into cells for Marburg Virus; details: Marburg virus pseudotyped entry inhibition, cell reporter; activity change, negative = inhibition: at 37.8 µM (top of the series) unless noted
% is set by controls: 0 for no effect and ±100 for the full control effect; potency is the fitted concentration of half-maximal effect.

Row | Structure (SMILES) | activity change, negative = inhibition | Potency
1 | COc1ccccc1C(=O)NC(=O)Cn1nc(C)c([N+](=O)[O-])c1C | inactive: 2.39% | –
2 | CCCN(CC1CC1)CC(O)c1ccccc1 (stereo unspecified) | – | inconclusive: 0.316 µM [inhibitor, full curve, poor fit]
3 | CC(C)(C)NCc1cc(Cl)ccc1OCc1ccccc1F | – | inconclusive: 3.55 µM [inhibitor, single point]
4 | O=C(c1ccccc1)c1ccc(OCC(O)CNCc2cccc(Cl)c2)cc1 (stereo unspecified) | – | inconclusive: 0.891 µM [activator, single point]
5 | Cc1nn(CC(=O)N2CCOCC2)c(=O)c2c1sc1ccccc12 | – | inconclusive: 0.562 µM [activator, full curve, poor fit]
6 | NNC(=O)c1sccc1OCc1cccc(C(F)(F)F)c1 | – | inconclusive: 10 µM [inhibitor, partial curve, poor fit]
7 | Oc1ccccc1-c1nnc(-c2ccc(C(F)(F)F)cc2)o1 | inactive: 16.8% | –
8 | CCN(CC)c1ccc(/C=N/NC(=O)Nc2nonc2N)cc1 | – | inconclusive: 15.8 µM [inhibitor, partial curve, poor fit]
9 | O=C(N/N=C/c1c(O)n(C2CC2)c(=S)[nH]c1=O)c1ccccc1O | inactive: -9.11% | –
10 | COc1ccc(C2CC(O)(C(C)(C)O)NO2)cc1 (stereo unspecified) | – | inconclusive: 32.6 µM [inhibitor, partial curve, poor fit]
11 | Cc1ccc(C(=O)NCc2ccco2)cc1S(=O)(=O)Nc1cccc(Cl)c1 | – | inconclusive: 8.2 µM [inhibitor, partial curve, poor fit]
12 | CS(=O)(=O)c1nc(-c2ccccc2)cc(C(F)(F)F)n1 | – | active: 6.31 µM
13 | COc1ccc(N2C(=S)N(C(=O)c3ccccc3)C(=Nc3ccccc3)C2=Nc2ccccc2)cc1 | – | inconclusive: 16.4 µM [inhibitor, partial curve, poor fit]
14 | Cc1cccc(-c2noc(CN(C)C(=O)COc3ccccc3)n2)c1 | – | inconclusive: 4.47 µM [inhibitor, partial curve, poor fit]
15 | CCn1nc(C(=O)NCc2ccco2)c(Cl)c1Cl | – | inconclusive: 1 µM [inhibitor, partial curve]
16 | CC(NC(=O)c1ccc(F)cc1Cl)C1CC2CCC1C2 (stereo unspecified) | inactive: 4.36% [at 46.1 µM] | –
17 | COc1cc(CNC2CCCCCC2)cc(OC)c1 | – | inconclusive: 29.1 µM [inhibitor, single point]
18 | O=C(NC(=O)c1c(F)cccc1F)Nc1ccccc1SC(F)F | inactive: -22% [at 46.1 µM] | –
19 | COc1ccc(CCN(C)C(=O)CSc2ncnc3sccc23)cc1OC | inactive: -1.82% [at 46.1 µM] | –
20 | OCCN1CCN(CCCN2c3ccccc3C=Cc3ccccc32)CC1 | – | active: 7.94 µM
21 | C=CCOC(=O)C1=C(C)NC(C)=C(C(=O)OCC=C)C1c1cn(-c2ccccc2)nc1-c1ccco1 | – | inconclusive: 5.17 µM [inhibitor, partial curve, poor fit]
22 | OC(CC1CC12c1ccccc1-c1ncccc12)(c1ccccc1)c1ccccc1 (stereo unspecified) | – | inconclusive: 1.64 µM [inhibitor, partial curve, poor fit]
23 | Cc1cc(C(=O)CSc2nnc(-c3cccnc3)n2-c2ccccc2F)c(C)n1CC1CCCO1 (stereo unspecified) | inactive: -15.4% | –
24 | CC(=O)c1c(C)[nH]c(C(=O)COc2ccc3ccc(=O)oc3c2)c1C | – | inconclusive: 35.5 µM [inhibitor, single point]

Row | Structure (SMILES) | activity change, negative = inhibition | Potency
25 | COc1ccc(CNC2CCSc3ccccc32)cc1OC (stereo unspecified) | – | inconclusive: 8.91 µM [inhibitor, partial curve, poor fit]
26 | Cc1c(N2C(=O)/C(=C/C3CC=CCC3)SC2=S)c(=O)n(-c2ccccc2)n1C (stereo unspecified) | – | inconclusive: 1 µM [activator, single point]
27 | C=C(CN(C)C)C(=O)c1ccc(C)cc1C | – | inconclusive: 12.6 µM [inhibitor, partial curve, poor fit]
28 | C=CCC(C#Cc1ccc(C)cc1)N(CC)CC (stereo unspecified) | – | inconclusive: 5.62 µM [inhibitor, single point]
29 | CN(C)N1C(N)=C(C#N)C(c2ccccc2Cl)C2=C1CCCC2=O (stereo unspecified) | – | inconclusive: 0.708 µM [inhibitor, single point]
30 | CC(C)(C)C1CCC2(CC1)NC(=S)N(c1ccccc1)N2 (stereo unspecified) | inactive: -13.2% [at 46.1 µM] | –
31 | C=CCSc1nnc2c(n1)OC=Nc1ccc(Br)cc1-2 | – | inactive
32 | O=C(NCc1csc(-c2ccccc2)n1)c1cc(F)cc2c1OCOC2 | inactive: 1.26% [at 46.1 µM] | –
33 | CC(C)OCCCNC(=O)c1c(N)n(CC2CCCO2)c2nc3ccccc3nc12 (stereo unspecified) | – | inconclusive: 16.4 µM [inhibitor, single point]
34 | O=C(O)c1ccc(OCCCCCCOC2CCCCO2)cc1 (stereo unspecified) | inactive: 3.84% [at 46.1 µM] | –
35 | O=C(CSc1n[nH]c(-c2ccccc2Cl)n1)NC1CCCCC1 | – | inconclusive: 5.62 µM [inhibitor, single point]
36 | CN1CCN(S(=O)(=O)c2ccc(Cl)c(C(F)(F)F)c2)CC1 | inactive: 20.3% | –
37 | CCNC(=O)COC(=O)c1cc(C)n(-c2ccccc2)c1C | inactive: 3.91% [at 46.1 µM] | –
38 | CSc1cccc(NC(=O)Cn2ncn3c(cc4ccccc43)c2=O)c1 | – | inconclusive: 5.62 µM [inhibitor, single point]
39 | CCc1nnc(NC(=O)c2cc(Cl)ccn2)s1 | – | inconclusive: 11.2 µM [inhibitor, partial curve, poor fit]
40 | CC1(C(=O)N2CCN(c3ccccc3)CC2)CC1(Cl)Cl (stereo unspecified) | inactive: -6.11% [at 46.1 µM] | –
41 | CC(=O)N1CCC2(CC1)C/C(=N\NC(=S)Nc1ccccc1F)c1cc(O)ccc1O2 | – | inconclusive: 1.26 µM [inhibitor, full curve, poor fit]
42 | O=C1C(=O)c2ccc(-c3ccccc3)cc2-c2ccccc21 | – | active: 5.8 µM
43 | O=C(NCc1ccc2c(c1)OCO2)c1ccc(CSCc2ccc(Cl)cc2)o1 | inactive: 8.41% | –
44 | COc1ccc(C(=O)Nc2ccccc2C(=O)Nc2ccccc2C(=O)O)cc1 | – | inconclusive: 35.5 µM [inhibitor, single point]
45 | COc1ccccc1NC(=O)c1ccccc1NC(=O)c1ccccn1 | – | inconclusive: 35.5 µM [inhibitor, single point]
46 | COc1ccccc1N1CCN(C(=O)c2c(C)noc2C)CC1 | inactive: 27.3% [at 46.1 µM] | –
47 | O=C(Cc1sc(-c2ccccc2)nc1-c1ccccc1)Nc1ccc(Cl)cc1 | inactive: -6.55% | –
48 | COc1ccc(CN(C)Cc2ccccc2)c(OC)c1OC | inactive: -25.9% | –

Row | Structure (SMILES) | activity change, negative = inhibition | Potency
49 | CC(C(=O)OCC(=O)Nc1ccc(S(=O)(=O)N2CCCCC2)cc1)N1C(=O)c2ccccc2C1=O (stereo unspecified) | – | inconclusive: 0.631 µM [inhibitor, partial curve, poor fit]
50 | COc1ccc(-[n+]2c(-c3ccccc3)cc(-c3ccc(C)cc3)cc2-c2ccccc2)cc1 | – | inconclusive: 3.55 µM [inhibitor, full curve, poor fit]
51 | COc1ccc(C(O)Cn2c(=N)n(CCCN(C)C)c3ccccc32)cc1 (stereo unspecified) | – | inconclusive: 17.8 µM [inhibitor, partial curve, poor fit]
52 | O=C1c2ccccc2NC(c2ccccc2O)N1c1ccc(F)cc1 (stereo unspecified) | – | inconclusive: 1 µM [activator, full curve, poor fit]
53 | Cc1ccc(-n2nc(C)c3cc(C(=O)O)sc32)cc1 | inactive: -11.1% | –
54 | CCOC(=O)Nc1ccc2c(c1)N(C(=O)CN1CCN(C)CC1)c1ccccc1S2 | – | inconclusive: 23.1 µM [inhibitor, partial curve, poor fit]
55 | CCOc1cc(CNn2cn[nH]c2=S)cc(Cl)c1OCc1ccccc1F | – | inconclusive: 0.631 µM [inhibitor, full curve, poor fit]
56 | Cc1onc(-c2ccccc2)c1C(=O)NCCSCc1ccco1 | – | inconclusive: 1.12 µM [inhibitor, partial curve, poor fit]
58 | O=C(CC(=O)c1ccccc1O)c1ccc(F)cc1 | – | inconclusive: 29.1 µM [inhibitor, single point]
59 | COc1ccc(NC(=O)CN2CCN(CC(=O)Nc3cc(OC)cc(OC)c3)CC2)cc1 | – | inconclusive: 1.12 µM [activator, single point]
60 | Cc1cccc(NC(=O)CCc2c(C)nc3c(c(C)nn3C(C)(C)C)c2C)c1C | inactive: -38.2% [at 46.1 µM] | –
61 | Cc1ccc(C(=O)NCC(=O)N(C)CC(=O)Nc2c(Cl)cccc2Cl)s1 | inactive: -12% | –
62 | CCOc1ccc(NC(=O)CCSc2ccc(C)cc2)cc1 | – | inconclusive: 11.2 µM [inhibitor, single point]
63 | CCC(C)NC(=O)c1c(N)n(Cc2ccc3c(c2)OCO3)c2nc3ccccc3nc12 (stereo unspecified) | – | inconclusive: 14.1 µM [inhibitor, single point]
64 | Cc1ccc2cccc(Oc3ncnc4scc(-c5ccc(Cl)cc5)c34)c2n1 | inactive: -28.5% | –
65 | C=CCNC(=S)NNC(=O)c1csc(C)c1C | – | inconclusive: 1.26 µM [activator, partial curve, poor fit]
66 | O=C(NC1CCN(Cc2ccccc2)CC1)c1cncc(Br)c1 | – | inconclusive: 12.6 µM [inhibitor, partial curve, poor fit]
67 | CCOC(=O)c1cc(-c2ccncc2)nc2c1c(C)nn2-c1ccccn1 | – | inconclusive: 2.59 µM [inhibitor, full curve, poor fit]
68 | CN(c1ccc(C(=O)Nc2ccc3c(c2)OCCO3)cc1)S(C)(=O)=O | – | inconclusive: 32.6 µM [inhibitor, single point]
69 | COc1cccc2cc(C(=O)NCC3CCCO3)c(=O)oc12 (stereo unspecified) | – | inconclusive: 0.501 µM [activator, single point]
70 | CN(C)S(=O)(=O)c1ccc(C(=O)NCCc2ccco2)cc1 | inactive: 2.74% | –
71 | O=C1/C(=C\Nc2ccc(OC(F)(F)F)cc2)CCN1c1ncccn1 | – | inconclusive: 6.31 µM [activator, single point]
